Measured values reported in publication doi:10.1101/2020.10.20.346858.
Read-outs that look alike come from different tables or passages of the source. These are yes or no findings as the source states them, for the method shown. In cells and extracts the contact can be indirect. Some binding calls cover weakened binding; strength is not graded here. For some of these results: Tags and fused reporters may be left off the sequences shown.

By UniProt entry, the sequences of proteins in these tests, tags left out. Where a name states a change or a piece, a line headed by the entry shows the natural chain unless it says otherwise.
UniProt Q05639, whole entry: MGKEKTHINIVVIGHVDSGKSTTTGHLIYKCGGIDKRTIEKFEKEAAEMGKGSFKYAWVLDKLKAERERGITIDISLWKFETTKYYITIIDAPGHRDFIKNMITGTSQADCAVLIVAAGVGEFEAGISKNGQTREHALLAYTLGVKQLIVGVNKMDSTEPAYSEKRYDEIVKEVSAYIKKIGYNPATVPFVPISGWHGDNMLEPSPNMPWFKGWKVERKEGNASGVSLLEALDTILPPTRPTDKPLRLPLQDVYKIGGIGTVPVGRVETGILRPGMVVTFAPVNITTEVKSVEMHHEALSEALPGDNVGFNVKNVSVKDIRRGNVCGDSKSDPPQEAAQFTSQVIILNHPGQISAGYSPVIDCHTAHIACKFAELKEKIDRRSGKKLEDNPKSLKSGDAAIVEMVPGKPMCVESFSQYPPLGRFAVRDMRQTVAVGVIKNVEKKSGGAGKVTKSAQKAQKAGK

Assays:
[1] = biological target: FLAG-eEF1A2 SA (phosphoablated mutant) (UniProt Q05639); test: co-IP
[2] = biological target: FLAG-eEF1A2 SE (phosphomimetic mutant) (UniProt Q05639); test: co-IP
[3] = biological target: FLAG-eEF1A2 wt (eukaryotic elongation factor 1 alpha 2) (UniProt Q05639); test: co-IP
[4] = biological target: FLAG-eEF1A2 SA (phosphoablated mutant) (UniProt Q05639); test: co-IP; remark: listed apart in the source
mGFP-eEF1A2 SA [5] = biological target: mGFP-eEF1A2 SA (UniProt Q05639); test: FRET or BRET
mGFP-eEF1A2 SE [6] = biological target: mGFP-eEF1A2 SE (UniProt Q05639); test: FRET or BRET
mGFP-eEF1A2 wt [7] = biological target: mGFP-eEF1A2 wt (UniProt Q05639); test: FRET or BRET
mGFP-eEF1A2 SA [8] = biological target: mGFP-eEF1A2 SA (UniProt Q05639); test: FRET or BRET; remark: listed apart in the source
mGFP-eEF1A2 SE [9] = biological target: mGFP-eEF1A2 SE (UniProt Q05639); test: FRET or BRET; remark: listed apart in the source
mGFP-eEF1A2 wt [10] = biological target: mGFP-eEF1A2 wt (UniProt Q05639); test: FRET or BRET; remark: listed apart in the source

## FLAG-eEF1A2 SA (phosphoablated mutant) (from UniProt Q05639 1-463)
[1]
  binding: binds

## FLAG-eEF1A2 SE (phosphomimetic mutant) (from UniProt Q05639 1-463)
[2]
  binding: binds

B1: HA-eEF1B2 (protein, UniProt P24534 1-225)
chain: MGFGDLKSPAGLQVLNDYLADKSYIEGYVPSQADVAVFEAVSSPPPADLCHALRWYNHIKSYEKEKASLPGVKKALGKYGPADVEDTTGSGATDSKDDDDIDLFGSDDEEESEEAKRLREERLAQYESKKAKKPALVAKSSILLDVKPWDDETDMAKLEECVRSIQADGLVWGSSKLVPVGYGIKKLQIQCVVEDDKVGTDMLEEQITAFEDYVQSMDVAAFNKI
[3]
  binding: binds
[4]
  binding: binds

B2: mScarlet-eEF1B2 (protein, UniProt P24534 1-225)
chain: B1 chain
mGFP-eEF1A2 SA [5]
  binding: binds
mGFP-eEF1A2 SE [6]
  binding: binds
mGFP-eEF1A2 wt [7]
  binding: binds
mGFP-eEF1A2 SA [8]
  binding: binds
mGFP-eEF1A2 SE [9]
  binding: binds
mGFP-eEF1A2 wt [10]
  binding: binds
